Experimental data: PMC3488261
For at least one entry, the source does not settle the construct or the ends of the probe. At least one verdict rests on a figure or table, not on a statement of the authors.

Sequences of proteins named here, by UniProt entry; tags and fusion partners are left off. Residues count along the entry.
UniProt Q13569, 111-308: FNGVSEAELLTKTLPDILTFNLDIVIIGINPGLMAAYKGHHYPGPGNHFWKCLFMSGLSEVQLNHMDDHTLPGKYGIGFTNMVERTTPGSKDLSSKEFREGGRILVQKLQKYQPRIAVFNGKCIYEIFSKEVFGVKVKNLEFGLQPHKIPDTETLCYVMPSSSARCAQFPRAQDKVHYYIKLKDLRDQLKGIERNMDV

Molecular target: TDG catalytic domain (pXC1056) (Homo sapiens) (UniProt Q13569)
Experiment: EMSA
Conditions: 1 uM TDG, 0.5 uM DNA; 5caC at strand 1 position 19; EMSA: 10 mM Tris-HCl pH 8.0, 1 mM EDTA, 0.1% BSA, 37 C 15 min; 10% native PAGE in 1x TBE; recombinant protein; residues 111-308; protein details: His6 removed by thrombin, N-terminal GSHMAS left; label: 5'-FAM strand 1

TCGGATGTTGTGGGTCAGCGCATGATAGTGTA (double strand) [32-bp G:5caC]
binding result: binds
